In PubChem BioAssay (NCATS) one finds AC50 data, which are given here for 9 compounds.

Structures are written as SMILES. The list shows a part of the results. Further columns of the screen follow, without active or inactive calls. Compounds called inactive in the main read-out are mostly missing here. Words in brackets tell the shape of the fitted curve; partial curves, single points and poor fits give uncertain potencies.

The test can be described thus: A High-Content qHTS Against Drug Library for the Identification of Small Molecules that Inhibit DYT1 Early Onset Primary Dystonia-Associated Cell Pathology (AID 1645839). To be noted: HEK293 Flp-In EGFP-delE TorsinA, punctate imaging, 48 h; measured here: cell count cytotoxicity. In outline:
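Flp-In T-REx 293 cells with tetracycline-inducible EGFP-delE hTOR1A (WT EGFP-hTOR1A as reference), 800 cells/well; compound added with tetracycline, 48 h at 37 C. Fixed, permeabilized cells imaged; %pathology (punctate TorsinA) primary, cell count counterscreen.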
One may read the AC50 as the concentration giving half of the maximal activity seen. As to `O=C(CS)Nc1ccccc1`, the AC50 was 0.562 µM [falling, full curve, poor fit]. As to `COc1cccc(CCc2ccccc2OCC(CN(C)C)OC(=O)CCC(=O)O)c1` (centres undefined), the AC50 is 8.91 µM [falling, partial curve, poor fit]. For the compound `CCOC(=O)c1ccc(O)c(O)c1`, the AC50 is 6.31 µM [falling, partial curve, poor fit]. With `COC(=O)Nc1nc2ccc(C(=O)C3CC3)cc2[nH]1`, the AC50 is 1.26 µM [falling, partial curve, poor fit].

In the case of `COc1cc(C=C2CCC/C(=C\c3ccc(O)c(OC)c3)C2=O)ccc1O`, the AC50 was 1.78 µM [falling, partial curve, poor fit]. As for `CCCCCCCCCCCCCCCCCCNC(=O)OC1CCN(C(=O)OC[C@H](COC(=O)N(Cc2cccc[n+]2CC)C(=O)c2ccccc2OC)OC)CC1`, the AC50 was 22.4 µM [falling, single point]. On to `CC(C(=O)O)c1cccc(Oc2ccccc2)c1` (centres undefined), for which the AC50 is 12.6 µM [falling, single point]. `CN(CCCN1c2ccccc2CCc2ccccc21)CC(=O)c1ccc(Cl)cc1`: the AC50 was 7.94 µM [falling, partial curve, poor fit]. For the compound `C#C[C@]1(O)CC[C@H]2[C@@H]3CCc4cc(OC)ccc4[C@H]3CC[C@@]21C`, the AC50 is 10 µM [falling, partial curve, poor fit].
